The record followed here is PubChem BioAssay AID2685 (National Center for Advancing Translational Sciences (NCATS), 2010).

A short description of this test: qHTS Assay for Lipid Storage Modulators in Drosophila S3 Cells.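 As to cell number change: cells counted by Cell Tracker Red CMTPX staining in the red channel.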 As to conditions: BODIPY lipid droplet fluorescence, 18-24 h; for cell number change: measured here: cell count max response, cells fed with added oleic acid. The method, boiled down: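 Drosophila S3 cells got compounds at several concentrations plus oleic acid (400 uM solution). Laser-scanning cytometry with 488 nm excitation read lipid droplets at 500-530 nm and cells at 575-640 nm. Percent activity was relative to 20 uM Triacsin C.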

Setting [1] is: measured here: cell number channel AC50, cells fed with added oleic acid.
[2] abbreviates: measured here: lipid fluorescence (Fed channel) AC50, cells fed with added oleic acid.

SMILES strings stand for the structures. The list shows a part of the results. The main result of the screen is listed elsewhere. These columns were measured beside it and carry no call. The list favours compounds with an active or inconclusive main result. Words in brackets tell the shape of the fitted curve; partial curves, single points and poor fits give uncertain potencies.

For the compound `C=CCOc1ccc(C2C(C(=O)c3ccco3)=C(O)C(=O)N2Cc2cccnc2)cc1` (stereo not given), the cell number change was 22%. In the case of `Cc1cc(S(=O)(=O)N2CCN(c3ccc(F)cc3)CC2)c(C)s1`, the cell number change is -43%. The concentration at half-maximal activity (AC50) under setting [1] is 18.4 µM [falling, single point]. Also, the half-maximal activity concentration (AC50) under setting [2] is 0.13 µM [falling, full curve, poor fit].

With `O=C(Nc1cccc2c1CCCC2)c1cc([N+](=O)[O-])ccc1Cl`, the cell number change was -15.1%. With `CCOC(CNC(=O)C(=O)NCC(c1ccco1)N1CCN(c2ccc(OC)cc2)CC1)OCC` (stereo not given), the cell number change is 22.3%. Turning to `CC(C)(C)N(Cc1ccccc1)C(=O)COC(=O)CNC(=O)c1ccco1`, the cell number change was found to be 27.6%. With `CCOc1cc(C2NC(=O)NC(C)=C2C(=O)NCc2ccccc2)c(Cl)cc1O` (stereo not given), the cell number change was -38.5%. Moreover, the concentration at half-maximal activity (AC50) under setting [1] was 0.461 µM [falling, partial curve, poor fit]. Besides, under setting [2], the AC50 was 3.66 µM [falling, full curve].

As for `CC(=O)COc1ccc2cc(-c3ccccc3)c(=O)oc2c1`, the cell number change was -5.26%. For the same compound, the AC50 under setting [2] was 5.8 µM [falling, single point]. Consider `Cc1cc(C(=O)OCC(=O)Nc2cc(Cl)ccc2C)c(C)o1`, for which the cell number change turned out to be 3.92%. The AC50 under setting [1] was 0.0259 µM [rising, partial curve]. Also, the concentration at half-maximal activity (AC50) under setting [2] was 0.184 µM [rising, full curve]. On to `O=[N+]([O-])c1ccccc1Oc1cnc2ccccc2n1`, for which the cell number change amounted to 44.5%. Also, the AC50 under setting [1] is 29.1 µM [rising, single point]. Further, the AC50 under setting [2] was 29.1 µM [rising, single point]. For the compound `CC(C)Oc1ccc(-c2cc(C(=O)NCCN3CCOCC3)c3ccccc3n2)cc1`, the cell number change is -3.33%. Also, under setting [1], the AC50 was 1.03 µM [falling, partial curve]. In addition, the AC50 under setting [2] was 0.731 µM [falling, full curve].

As to `Cc1nc(Nc2ccc(Cl)c(Cl)c2)sc1C(=O)Nc1ccccc1`, the cell number change was -63.4%. Moreover, under setting [1], the AC50 is 29.1 µM [falling, single point]. With `O=C(NNS(=O)(=O)c1ccccc1)c1ccc(F)cc1`, the cell number change worked out at 28.8%. Also, the AC50 under setting [2] is 29.1 µM [rising, partial curve, poor fit]. With `Brc1ccc(-c2ccc(C3Nc4cccc5cccc(c45)N3)o2)cc1`, the cell number change was -20.3%. The half-maximal activity concentration (AC50) under setting [2] was 1.16 µM [rising, single point]. With `O=C(CN(C(=O)CCC(=O)Nc1nccs1)c1ccc2c(c1)OCCO2)NCc1ccco1`, the cell number change was 27.1%. Also, the half-maximal activity concentration (AC50) under setting [2] is 0.58 µM [rising, single point].

For the compound `CCc1ccc(OCC(=O)O/N=C(\N)c2cccnc2)cc1`, the cell number change came to 14.3%. In addition, the AC50 under setting [2] was 20.6 µM [rising, single point]. For the compound `O=C(COc1ccc(Cl)cc1Br)N1CCN(c2ncccn2)CC1`, the cell number change was -50%. For the same compound, the AC50 under setting [1] was 0.0731 µM [falling, full curve, poor fit]. `Cc1ccc(NC(=S)N(CCCN2CCCC(C)C2)Cc2ccco2)cc1C` (stereo not given): the cell number change was -0.352%. For `COc1ccc(S(=O)(=O)N2CCOCC2)cc1NC(=O)CCNC(=O)c1ccc(Br)cc1`, the AC50 was 5.17 µM [falling, single point] under setting [1] and 4.61 µM [falling, single point] under setting [2]. Turning to `CSc1nc2ccc(NS(=O)(=O)c3ccc(CNC(C)=O)cc3)cc2s1`, the cell number change was -8.69%. For the same compound, under setting [2], the concentration at half-maximal activity (AC50) was 2.06 µM [falling, partial curve, poor fit].

As to `CC(C)OC(=O)c1nnn(-c2nonc2N)c1CSc1ccccn1`, the cell number change was -18.7%. For the same compound, under setting [2], the AC50 was 6.51 µM [rising, partial curve, poor fit]. In the case of `COCCNC(=O)COC(=O)c1[nH]c(C)c(C(C)=O)c1C`, the half-maximal activity concentration (AC50) reads like this: under setting [1], 0.164 µM [rising, full curve, poor fit]; under setting [2], 0.366 µM [rising, partial curve, poor fit]. For `CCOC(=O)c1cnc2c(OC)cccc2c1N1CCN(c2ccccc2OC)CC1`, the cell number change is -32.9%. Further, the AC50 under setting [1] was 23.1 µM [falling, single point].

Turning to `CCO[C@@H]1OC(C(=O)N2CCOCC2)=C[C@H](c2ccc(C(F)(F)F)cc2)[C@H]1CCCO`, the cell number change came to 20.4%. In addition, the AC50 under setting [2] is 0.092 µM [rising, full curve, poor fit].

As to `O=C(NCc1cccnc1)C1c2ccccc2C(=O)N1Cc1ccccc1` (stereo not given), the cell number change was -0.787%. Regarding `COc1ccc(S(=O)(=O)NCc2cccnc2)cc1NC(=O)c1ccc(C)cc1`, the AC50 under setting [2] is 4.11 µM [rising, single point]. In the case of `O=C(O)c1cccc2c1-c1ccccc1/C2=N\Nc1ccccc1`, the cell number change was -26.1%.

Regarding `CSCC[C@H](NC(=O)COc1cc2c(c3oc(=O)c(C)c(C)c13)CCC(C)(C)O2)C(=O)O`, the cell number change stood at 12.1%. Under setting [2], the half-maximal activity concentration (AC50) was 20.6 µM [rising, single point]. For `Cn1cccc1CNC(=S)Nc1ccccc1Cl`, the cell number change is -12%. The half-maximal activity concentration (AC50) under setting [1] was 0.291 µM [falling, single point].

Take `CCOc1ccc(NS(=O)(=O)c2ccc(C(=O)NCC(c3ccc(OC)cc3)N3CCCC3)cc2)cc1` (stereo not given): the cell number change was -11%. Moreover, the AC50 under setting [2] is 16.4 µM [falling, single point].

Take `CCCCC1CCC(C(=O)OC(C)C(=O)Nc2ccc(NC(C)=O)cc2)CC1` (stereo not given): the cell number change was 38.3%. The half-maximal activity concentration (AC50) under setting [1] is 7.31 µM [rising, partial curve]. In addition, under setting [2], the concentration at half-maximal activity (AC50) is 0.517 µM [rising, full curve].

For `CCN1CCN(C(=O)C2CC(c3ccc(F)cc3)=NO2)CC1` (stereo not given), the cell number change was -0.196%. Under setting [2], the AC50 was 29.1 µM [falling, single point]. With `CCOC(=O)c1[nH]cnc1C(=O)O`, the cell number change was determined as 10.9%. In addition, the half-maximal activity concentration (AC50) under setting [2] was 20.6 µM [falling, partial curve]. For the compound `Cc1ccc2nc(-c3ccc(NC(=O)COC(=O)c4ccco4)cc3)sc2c1`, the cell number change is -10.1%. In addition, the AC50 under setting [1] is 3.26 µM [falling, single point]. Further, the AC50 under setting [2] is 2.06 µM [falling, single point].

Regarding `COc1ccc(NC(=O)Cc2nnc(SCC(=O)c3ccccc3)n2C)cc1`, the cell number change amounted to 16.7%. The concentration at half-maximal activity (AC50) under setting [2] was 0.116 µM [falling, single point]. As to `CC(=O)C1=C(C)Nc2ncnn2C1c1ccc(Cl)cc1` (stereo not given), the cell number change was -0.291%.

`CN(C)CCNc1ncnc2c1cnn2-c1ccc(Cl)cc1`: the cell number change came to 18.7%. In addition, the concentration at half-maximal activity (AC50) under setting [2] was 32.6 µM [rising, single point]. For the compound `COc1cc(NS(=O)(=O)c2c(C)[nH]c(C)c2C(=O)N2CCCCC2)cc(OC)c1OC`, the cell number change is -13.7%. Consider `O=C(CCNC(=O)c1ccc(Cl)cc1)NCc1cccc(C(F)(F)F)c1`, for which the cell number change turned out to be 316%. Also, the half-maximal activity concentration (AC50) under setting [1] is 29.1 µM [rising, single point]. Turning to `CN1CCOCCOCCOCCN(C)C1=S`, the cell number change came to 1.91%.

With `Cc1cc(NC(=O)c2oc3ccccc3c2C)ccc1-n1cnnn1`, the cell number change was -9.66%. Besides, under setting [2], the AC50 is 29.1 µM [falling, single point]. For `COc1ccc(OC)c(Nc2nc(C)nc3c2oc2ccccc23)c1`, the cell number change is -52.1%. For the same compound, the AC50 under setting [1] is 29.1 µM [falling, single point]. Further, the half-maximal activity concentration (AC50) under setting [2] was 29.1 µM [falling, single point]. Consider `CCOC(=O)C1(CCc2ccccc2)CCN(C2Cc3ccccc3C2)CC1`, for which the cell number change is -26.7%. Further, the AC50 under setting [2] was 5.8 µM [falling, partial curve]. As to `CN(C(=O)CSc1nncc2ccccc12)C1CCCCC1`, the cell number change amounted to 4.48%. Besides, the AC50 under setting [1] is 6.51 µM [rising, single point]. Moreover, the AC50 under setting [2] is 6.51 µM [rising, single point].

As to `O=C(CSc1nnc(-c2ccc(O)cc2)n1Cc1ccco1)c1cccs1`, the cell number change amounted to 22.7%. Also, the half-maximal activity concentration (AC50) under setting [2] was 0.058 µM [falling, full curve, poor fit]. On to `Cc1ccc(C(=O)Oc2cc(-c3ccccc3)no2)cc1`, for which the cell number change was determined as 10.9%. The half-maximal activity concentration (AC50) under setting [2] was 0.206 µM [falling, full curve].

As for `Cn1nnnc1SCc1nc2ccccc2[nH]1`, the cell number change amounted to 16.3%.

For `Cc1cc(N2CCOCC2)nc2ccc(NC(=O)CCC(=O)N3CCN(c4ccccc4F)CC3)cc12`, the cell number change was determined as 37.4%. With `Clc1ccc(-n2nnnc2CN2CCCCC2)cc1Cl`, the concentration at half-maximal activity (AC50) under setting [2] was 0.231 µM [falling, full curve, poor fit]. Consider `CN(Cc1cccs1)C(=O)CN1C(=O)c2ccccc2S1(=O)=O`, for which the cell number change was -29.3%. Under setting [1], the concentration at half-maximal activity (AC50) is 0.00517 µM [falling, full curve]. Further, under setting [2], the AC50 was 0.00461 µM [falling, full curve]. In the case of `NNC(=O)CCCCCCCCCCOCCCCO`, the AC50 under setting [1] is 0.0058 µM [rising, full curve, poor fit].

For the compound `Cn1c(=O)c2sc3c(c2n(CC(=O)Nc2ccccc2)c1=O)COC(C)(C)C3`, the cell number change was determined as 2.66%. In the case of `Cc1c(C)c(C)c2[nH]c(-c3ccc4c(c3)OCO4)nc2c1C`, the cell number change is -5.63%. Turning to `Clc1ccc(Cn2nc(-c3ccccc3)nc2-c2ccccc2)cc1`, the cell number change was -4.15%. For the same compound, the AC50 under setting [1] was 2.31 µM [falling, single point]. In the case of `CNc1oc(/C=C/c2ccccc2)nc1C#N`, the cell number change was 58.9%. The AC50 under setting [1] is 4.61 µM [rising, single point]. For the same compound, the AC50 under setting [2] was 0.184 µM [rising, full curve]. In the case of `CC(=O)Nc1sc(C)c(C)c1C(=O)OCC(=O)N(CCC#N)c1cc(C)cc(C)c1`, the cell number change worked out at 12.4%.

On to `CCCCOc1ccc(C2/C(=C(\O)c3ccc4c(c3)OCCO4)C(=O)C(=O)N2CCCN2CCOCC2)cc1` (stereo not given), for which the AC50 under setting [2] is 29.1 µM [rising, single point].

For the compound `Cc1cc(C)cc(NC(=O)CCc2c(C)nn(-c3ccc(N4CCCCC4)nn3)c2C)c1`, the cell number change was 11.9%. For the same compound, the AC50 under setting [1] is 0.0058 µM [rising, full curve, poor fit]. In the case of `COCCN(C(=O)CSc1nc2ccc(Cl)cc2[nH]1)c1c(N)n(Cc2ccccc2)c(=O)[nH]c1=O`, the cell number change is -4.14%. For the same compound, the half-maximal activity concentration (AC50) under setting [2] was 29.1 µM [falling, single point].

Take `Cc1cccc(Sc2c(C=O)c3ccccc3n2C)c1`: the cell number change came out at 24.9%. Also, the concentration at half-maximal activity (AC50) under setting [2] is 23.1 µM [rising, single point].

For the compound `COc1ccc(/C=C/C(=O)OCC(=O)Nc2cc(C(F)(F)F)ccc2Cl)cc1`, the cell number change was -9.04%. Besides, the AC50 under setting [2] was 20.6 µM [falling, partial curve, poor fit].

As to `COc1ccc(-c2nc(C(N)=O)c3[nH]c(=O)n(-c4cccc(Cl)c4)c3n2)cc1OC`, the cell number change was -162%. The concentration at half-maximal activity (AC50) under setting [1] is 6.51 µM [rising, partial curve, poor fit]. Moreover, under setting [2], the AC50 was 29.1 µM [falling, single point].
